# Where a name gives a salt, the structure may show the parent alone. Screen size: about 1,200 compounds; about 50 (4%) showed activity. No stated cut-off is given here; in the data, all actives reach 1.3 or more but so do some inactives. Some of the results follow.
# Tested on: Lgr5 (MarsCy1-Lgr5-EGFP, U2OS)
# Test: cell-surface Lgr5 expression (SCi1 fluorescence, background-subtracted) relative to WT DMSO (fold of DMSO control); higher = more Lgr5 at the plasma membrane, active = hit call of the paper
# Settings: U2OS MarsCy1-Lgr5-EGFP stable; treatment time: overnight; 16 µM; library: Johns Hopkins Clinical Compound Library
row,Compound,cell-surface Lgr5 expression
1,NCC1(CC(=O)O)CCCCC1 [Gabapentin],inactive: 0.883
2,CNC(=O)Oc1cccc2ccccc12 [Carbaryl (Carbaril)],inactive: 0.718
3,CC(O)(CS(=O)(=O)c1ccc(F)cc1)C(=O)Nc1ccc(C#N)c(C(F)(F)F)c1 (configuration not stated) [Bicalutamide (Casodex)],inactive: 1.11
4,CCC1(c2ccc(N)cc2)CCC(=O)NC1=O (racemic) [(+-)-p-Aminoglutethimide],inactive: 1.35
5,C[C@@H]1C[C@@H]([C@H](O)CC2CC(=O)NC(=O)C2)C(=O)[C@@H](C)C1 [Cycloheximide],inactive: 0.313
6,CN1[C@@H]2CC[C@H]1C[C@@H](OC(=O)c1cc(Cl)cc(Cl)c1)C2 [Bemesetron (MDL-7222)],inactive: 1.18
7,O=C(O)c1nn(Cc2ccc(Cl)cc2Cl)c2ccccc12 [Lonidamine],inactive: 1.14
8,Cc1cc(C(C#N)c2ccc(Cl)cc2)c(Cl)cc1NC(=O)c1cc(I)cc(I)c1O (configuration not stated) [Closantel],inactive: 1.11
9,CCCCOC(=O)c1ccccc1C(=O)OCCCC [Dibutyl phthalate],inactive: 0.671
10,ClC(Cl)=C(Cl)Cl [Tetrachloroethylene],inactive: 1.18
11,COc1ccc2c(c1O)-c1cccc3c1[C@@H](C2)N(C)CC3 [Apocodeine],inactive: 1.01
12,CC[C@H](C)[C@H]1O[C@]2(C=C[C@@H]1C)C[C@@H]1C[C@@H](C/C=C(\C)[C@@H](O[C@H]3C[C@H](OC)[C@@H](O[C@H]4C[C@H](OC)[C@@H](O)[C@H](C)O4)[C@H](C)O3)[C@@H](C)/C=C/C=C3\CO[C@@H]4[C@H](O)C(C)=C[C@@H](C(=O)O1)[C@]34O)O2.CO[C@H]1C[C@H](O[C@H]2[C@H](C)O[C@@H](O[C@@H]3/C(C)=C/C[C@@H]4C[C@@H](C[C@]5(C=C[C@H](C)[C@@H](C(C)C)O5)O4)OC(=O)[C@@H]4C=C(C)[C@@H](O)[C@H]5OC/C(=C\C=C\[C@@H]3C)[C@]54O)C[C@@H]2OC)O[C@@H](C)[C@@H]1O [Abamectin],inactive: 1.15
13,BrC(Br)Br [Bromoform],inactive: 1.02
14,O=C(O)CCCc1ccc(N(CCCl)CCCl)cc1 [Chlorambucil],inactive: 1.14
15,[S]=[Sb][S][Sb]=[S] [Antimony (III) sulfide],inactive: 1.26
16,NC(=O)CN1CC(O)CC1=O (configuration not stated) [Oxiracetam],active: 1.36
17,[O-][Cl+3]([O-])([O-])O [Potassium perchlorate],inactive: 1.07
18,[O-][Cl+3]([O-])([O-])O [Sodium perchlorate monohydrate],inactive: 1.03
19,O=C1C[C@@H]2OCC=C3CN4CC[C@]56c7ccccc7N1[C@H]5[C@H]2[C@H]3C[C@H]46 [Strychnine],inactive: 0.416
20,CCC(=O)O[C@@](Cc1ccccc1)(c1ccccc1)[C@@H](C)CN(C)C [Levopropoxyphene napsylate],inactive: 0.856
21,[O-][I+2]([O-])O [Potassium iodate],inactive: 1.14
22,CN1C[C@H](C(=O)N[C@]2(C)O[C@@]3(O)[C@@H]4CCCN4C(=O)[C@H](Cc4ccccc4)N3C2=O)C[C@@H]2c3cccc4[nH]cc(c34)C[C@H]21 [Dihydroergotamine methanesulfonate],inactive: 0.612
23,O=C1NCN(c2ccccc2)C12CCN(CC1COc3ccccc3O1)CC2 (configuration not stated) [Spiroxatrine],inactive: 1.25

# Part of the list above, with bars between the fields.
row | Compound | cell-surface Lgr5 expression
16 | NC(=O)CN1CC(O)CC1=O (configuration not stated) [Oxiracetam] | active: 1.36
17 | [O-][Cl+3]([O-])([O-])O [Potassium perchlorate] | inactive: 1.07
18 | [O-][Cl+3]([O-])([O-])O [Sodium perchlorate monohydrate] | inactive: 1.03
19 | O=C1C[C@@H]2OCC=C3CN4CC[C@]56c7ccccc7N1[C@H]5[C@H]2[C@H]3C[C@H]46 [Strychnine] | inactive: 0.416

# Following part.

row,Compound,cell-surface Lgr5 expression
1,C[N+]1(C)[C@@H]2CC[C@H]1C[C@@H](OC(=O)C(CO)c1ccccc1)C2 (some centres not stated) [Methylatropine nitrate (Atropine methyl nitrate)],inactive: 0.695
2,C[N+](C)(C)CCCCCCCCCC[N+](C)(C)C [Decamethonium Bromide],inactive: 1.27
3,O=Cc1ccccc1 [Benzaldehyde],inactive: 1.03
4,COc1cccc(C2(O)CCCCC2CN(C)C)c1 (configuration not stated) [Tramadol hydrochloride],inactive: 1.07
5,N.N.[Cl][Pt][Cl] [Cisplatin],inactive: 1.14
6,CC(C)(O)C(Cl)(Cl)Cl [Chlorobutanol],inactive: 1.26
7,CNc1ccc(C(=O)CC(O)CCC(C)C2OC(=O)CC(O)CC(=O)CC(O)CC(O)CC(O)CC(O)CC3(O)CC(O)C(C(=O)OC)C(CC(O[C@@H]4O[C@H](C)[C@@H](O)[C@H](N)[C@@H]4O)/C=C/C=C/C=C/C=C/C=C/C=C/C=C/C2C)O3)cc1.COC(=O)C1C(O)CC2(O)CC(O)CC(O)CC(O)CC(O)CC(=O)CC(O)CC(=O)OC(C(C)CCC(O)CC(=O)c3ccc(N)cc3)C(C)/C=C/C=C/C=C/C=C/C=C/C=C/C=C/C(O[C@@H]3O[C@H](C)[C@@H](O)[C@H](N)[C@@H]3O)CC1O2 (some centres not stated) [Mepartricin],inactive: 0.888
8,Nc1ccccc1C(=O)O [Anthranilic acid (2-aminobenzoic acid)],inactive: 1.13
9,CCCCNCC(O)c1ccc(O)cc1 (configuration not stated) [Bamethan sulfate (Bamethane)],inactive: 1.33
10,[Cl][Cr]([Cl])[Cl] [Chromium (III) chloride],inactive: 0.925
11,COC(=O)c1ccccc1C(=O)OC [Dimethyl phthalate],inactive: 1
12,CC(C)N(CCC(C(N)=O)(c1ccccc1)c1ccccn1)C(C)C (configuration not stated) [Disopyramide],inactive: 1.13
13,N[C@@H](Cc1ccc(N(CCCl)CCCl)cc1)C(=O)O [Melphalan],inactive: 1.14
14,CO[C@@H]1[C@H](OC(=O)NC(=O)CCl)CC[C@]2(CO2)[C@H]1[C@@]1(C)O[C@@H]1CC=C(C)C,inactive: 1.29
15,CN[C@@H]1C[C@@H](c2ccc(Cl)c(Cl)c2)c2ccccc21 [Indatraline hydrochloride],inactive: 1.23
16,C=CCC1=C(C)C(OC(=O)[C@@H]2[C@@H](C=C(C)C)C2(C)C)CC1=O (some centres not stated) [Bioallethrin],inactive: 1.32
17,CN1[C@@H]2CC[C@H]1C[C@@H](OC(=O)[C@H](CO)c1ccccc1)C2 [L-Hyoscyamine hydrochloride],inactive: 1.12
18,CCCC(C)(COC(N)=O)COC(N)=O [Meprobamate],inactive: 0.458
19,CCCN1CCC[C@@H]2Cc3nc(N)ncc3C[C@H]21 [Quinelorane dihydrochloride],inactive: 0.977
20,COc1ccc(OC)c(C(O)C(C)NC(C)(C)C)c1 (configuration not stated) [Butoxamine hydrochloride],inactive: 1.23
21,CNC(C)Cc1ccc(O)cc1 (configuration not stated) [Pholedrine (p Hydroxymethamphetamine)],inactive: 1.1
22,CCOP(=S)(OCC)SCSc1ccc(Cl)cc1 [Carbophenothion],inactive: 1.03
23,C=CCN=C=S [Allyl isothiocyanate],inactive: 0.99

row,Compound,cell-surface Lgr5 expression
1,C=C[C@H]1CN2CC[C@H]1C[C@@H]2[C@@H](O)c1ccnc2ccccc12 [Cinchonine sulfate],inactive: 1.25
2,CC(Cc1ccc(O)cc1)NCC(O)c1cc(O)cc(O)c1 (configuration not stated) [Fenoterol],inactive: 1.13
3,CC(C)CC(N(C)C)C1(c2ccc(Cl)cc2)CCC1 (configuration not stated) [Sibutramine HCl],inactive: 1.12
4,CC(C)[N+](C)(CCC(C(N)=O)(c1ccccc1)c1ccccc1)C(C)C [Isopropamide iodide],inactive: 1.06
5,CCCCOC(=O)C1=CC(=O)CC(C)(C)O1 [Butopyronoxyl],inactive: 1.01
6,[Bi+3].[O-]c1c(Br)cc(Br)cc1Br.[O-]c1c(Br)cc(Br)cc1Br.[O-]c1c(Br)cc(Br)cc1Br [Bismuth tribromophenate],inactive: 1.13
7,C[C@]12CC[C@H]3[C@@H](CC[C@]4(O)C[C@@H](O)CC[C@]34C=O)[C@@]1(O)CC[C@@H]2C1=CC(=O)OC1 [Strophanthidin],inactive: 0.301
8,CCN(CC)C(=O)N[C@H]1C=C2c3cccc4[nH]cc(c34)C[C@H]2N(C)C1 [Lisuride],inactive: 1.1
9,C=CCN1C[C@H](C(=O)N(CCCN(C)C)C(=O)NCC)C[C@@H]2c3cccc4[nH]cc(c34)C[C@H]21 [Cabergoline],inactive: 0.958
10,O=P1(NCCCl)OCCCN1CCCl (configuration not stated) [Ifosfamide],inactive: 1.19
11,CN1CC[C@@]2(C)c3cc(O)ccc3N(C)[C@@H]12 [Eseroline],inactive: 0.813
12,O=C(O)COc1ccccc1 [Phenoxyacetic acid],inactive: 1.04
13,CN1CCN(C(=O)OC2c3nccnc3C(=O)N2c2ccc(Cl)cn2)CC1 (configuration not stated) [Zopiclone],inactive: 1.01
14,Oc1ccc(CCN2CCC(Nc3nc4ccccc4n3Cc3ccc(F)cc3)CC2)cc1 [Desmethylastemizole],inactive: 0.724
15,NC(=O)C[S+]([O-])C(c1ccccc1)c1ccccc1 (configuration not stated) [Modafinil],inactive: 1.04
16,[O-][Cl+2]([O-])O [Potassium chlorate],inactive: 0.901
17,CCC(Br)(CC)C(=O)NC(N)=O [Carbromal (Bromodiethylacetylurea)],inactive: 0.442
18,CC(=O)OCC1=C(C(=O)O)N2C(=O)[C@@H](NC(=O)CCC[C@@H](N)C(=O)O)[C@H]2SC1 [Cephalosporin c],inactive: 0.958
19,CN1CC[C@@]23CCCC[C@@H]2[C@@H]1Cc1ccc(O)cc13 [Dextrorphan tartrate],inactive: 1.16
20,CN1CC[C@@]23CCCC[C@@H]2[C@@H]1Cc1ccc(O)cc13 [Dextrorphan],inactive: 1.26
21,"CNC(C)C(O)c1ccccc1 [(1R,2S)-(-)-Ephedrine]",inactive: 1.16

# Reference: the supplement of paper PMC4683952
